Reference: PubChem BioAssay AID485314 (National Center for Advancing Translational Sciences (NCATS), 2010)
Among all 340,000 compounds or so, about 4,500 (1.3%) were called active. The shares of active, inactive and inconclusive entries below differ from those in the screen. Calls come from the whole dose curve; as a rule, active = well fitted inhibition curve with a large enough effect; inconclusive = small, poorly fitted or top-dose-only effect, or another doubt; inactive = no such curve, though single readings can be large or run the other way. Potencies beside an inconclusive call are fits to weak or partial responses and may not hold up.

Each compound was assayed against DNA polymerase beta (Homo sapiens) (UniProt P06746) (assay: qHTS Assay for Inhibitors of DNA Polymerase Beta). Conditions: Pol beta primer extension/strand displacement, fluorescence kinetic; activity change, negative = inhibition: at 114 µM (top of the series).
Procedure, shortened: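 Preincubation: enzyme (10 nM) with compound, 15 min, RT. Reaction: substrate added to 50 nM final. Reads: 0 and 10 min. Analysis: normalized, Hill fit.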
% is set by controls: 0 for no effect and ±100 for the full control effect; potency is the fitted concentration of half-maximal effect.

Structure (SMILES)	Potency	activity change, negative = inhibition
COc1ccc(C)cc1NC(=O)CSc1ccc(-c2sc(C)nc2C)nn1	inconclusive: 8.91 µM [inhibitor, partial curve]	
OC1CCC(NC(=S)Nc2ccc(SC(F)F)cc2)CC1 (stereo not drawn)	inconclusive: 3.16 µM [inhibitor, full curve, poor fit]	
O=C(Nc1ccc(S(=O)(=O)Nc2nccs2)cc1)C1=NN(c2ccccc2)C(=O)CC1	inconclusive: 39.8 µM [inhibitor, single point]	
O=C1N=C(C=c2ccc(=Cc3[nH]c(=O)[nH]c3O)cc2)C(=O)N1	inconclusive: 17.8 µM [inhibitor, full curve]	
O=c1c2c3nc4ccccc4nc3n(Cc3ccccc3)c2ncn1Cc1ccco1	active: 28.2 µM	
O=C(NCc1ccccn1)C(=O)Nc1nc(-c2ccccc2)cs1	inconclusive: 79.4 µM [inhibitor, single point]	
CCOC(=O)c1c(NC(C)=O)c2c3c(sc2n1Cc1nc(-c2ccccc2OCC)oc1C)CCCC3	inactive	
C=CCOC(=O)C1=C(C)NC(SCC(=O)OCC)=C(C#N)C1c1ccc(O)c(OC)c1 (stereo not drawn)	inconclusive: 0.112 µM [inhibitor, full curve, poor fit]	
Cc1ccnc(N/C=C(\C#N)c2nc(-c3cccc(Br)c3)cs2)c1	active: 35.5 µM	
Cc1ccc(CNC(=O)CCCn2c(=O)c3ccccc3n(CC(=O)C(C)(C)C)c2=O)cc1	inactive	
CCOC(=O)Cn1c(=O)n(CC2CCCO2)c2nc(-c3ccc(OC)cc3OC)nc(C(N)=O)c21 (stereo not drawn)	inconclusive: 0.141 µM [inhibitor, full curve, poor fit]	
O=C(Nc1cc(C(F)(F)F)ccc1Cl)C1CCN(c2nnc(-n3cccc3)s2)CC1	active: 3.98 µM	
O=C(CSc1nnc(NC(=O)NC2CCCCC2)s1)Nc1ccccc1F	inconclusive: 89.1 µM [inhibitor, single point]	
CC(=O)O[C@H]1c2ccccc2-c2ccccc2[C@@H]1OC(C)=O	inconclusive: 8.91 µM [inhibitor, full curve, poor fit]	
O=S(=O)(Nc1cccc(-c2nc3cccnc3s2)c1)c1ccc2c(c1)OCCO2	inconclusive: 31.6 µM [inhibitor, single point]	
Nc1nonc1-n1nnc(C(=O)N/N=C/c2cccs2)c1CSc1ccccc1	inactive	
CCN1CCC(N(Cc2cccc(OC)c2)C(=O)Nc2cccc(C(F)(F)F)c2)CC1	inactive	
O=C(Nc1nnc(C23CC4CC(CC(C4)C2)C3)s1)c1ccc(N2C(=O)CCC2=O)cc1	active: 10 µM	
CC(C)Oc1ccccc1OCCCOc1cccc2cccnc12	inconclusive: 89.1 µM [inhibitor, single point]	
CCCC(c1c(C)n(C)n(-c2ccccc2)c1=O)c1c(C)n(C)n(-c2ccccc2)c1=O	inconclusive: 3.98 µM [inhibitor, full curve]	
O=C(c1ccc(CS(=O)c2ccc(F)cc2)o1)N1CCN(C2CCCCC2)CC1 (stereo not drawn)	inconclusive: 0.251 µM [inhibitor, full curve, poor fit]	
Cc1ccc(C)c2[nH]c(=O)c(CN(CC3CCCO3)C(=S)NCc3ccco3)cc12 (stereo not drawn)		inconclusive: -36.7% [inhibitor]
O=C(O)C1CC=CCC1C(=O)N1CCc2ccccc21 (stereo not drawn)	active: 20 µM	
Cc1cccc(-n2c(SCc3cc(=O)n4ccsc4n3)nc3ccccc32)c1	inconclusive: 39.8 µM [inhibitor, single point]	
S=C(NCc1ccc2[nH]c3c(c2c1)CCCC3)Nc1ccccc1	inactive	

Structure (SMILES)	Potency	activity change, negative = inhibition
CC1=C(C(=O)Nc2ccccc2C)C(c2cccnc2)n2nc(SCc3ccccc3)nc2N1 (stereo not drawn)	inconclusive: 89.1 µM [inhibitor, single point]	
COc1ccc(C(=O)NC(=O)NC2(C(Cl)(Cl)Cl)OCCO2)cc1	inconclusive: 31.6 µM [inhibitor, single point]	
Cc1ccc(NC(=O)N2CCC(N3CCN(Cc4ccccc4)C(=O)C3=O)CC2)cc1Cl	inactive	
CC1CCCN(S(=O)(=O)c2cc3c(cc2Cl)NC(=O)CO3)C1 (stereo not drawn)	inactive	
O=C1c2cccc3c([N+](=O)[O-])ccc(c23)C(=O)N1Cc1cccnc1	active: 15.8 µM	
CCCCCNC(=O)c1c[nH]c2ccc(S(=O)(=O)N3CCC(C)CC3)cc2c1=O	inactive	
Cc1ccc(/C=N/NC(=O)Cc2ccc(Cl)cc2)s1	inconclusive: 2.82 µM [inhibitor, partial curve, poor fit]	
Cc1nnc2sc(SCc3ccccc3)nn2c1=O	inconclusive: 89.1 µM [inhibitor, single point]	
COc1ccccc1CNC(=O)CCn1c(=O)c2ccccc2n(CC(=O)Nc2ccc(C)cc2)c1=O	inactive	
CCCc1ccc(C(=O)Cn2nc(C(=O)O)c3ccccc3c2=O)cc1	inconclusive: 2.82 µM [inhibitor, full curve]	
CCc1nnc(NS(=O)(=O)c2ccc(NS(=O)(=O)c3ccccc3[N+](=O)[O-])cc2)s1	inactive	
Cc1cc(C)cc(NC(=O)CN2C(=O)CSc3ccc(S(=O)(=O)N(C)C)cc32)c1	inactive	
Cc1ccc(OCC(=O)Nc2ccc(Cl)c(-c3nc4ncccc4o3)c2)cc1C	inconclusive: 89.1 µM [inhibitor, single point]	
CCOC(=O)c1c(C)oc2ncnc(Nc3ccc(F)cc3Cl)c12	inactive	
O=S(=O)(c1ccccc1)c1nc(-c2ccco2)oc1N1CCCCCC1	inactive	
Cc1csc(NC(=O)CSc2sc3c(O)cc(=O)[nH]c3c2C#N)n1	active: 44.7 µM	
C/C(N)=C(/C#N)C(=O)CSc1nnc(-c2ccccc2Br)o1	inconclusive: 25.1 µM [inhibitor, single point]	
CCC1(C)NC(=O)N(CC(=O)Nc2sc3c(c2C(=O)OC)CCCCC3)C1=O (stereo not drawn)	inactive	
O=[N+]([O-])c1ccc2cn[nH]c2c1	inactive	
COc1cc(OC)cc(-c2nc3nc(C)c(CCC(=O)O)c(C)n3n2)c1	inconclusive: 89.1 µM [inhibitor, single point]	
Cc1nnc(C)n1/N=C/c1ccc(O)cc1	inactive	
COc1ccc(OC)c(NC(=O)CCn2cnnn2)c1	inactive	
COCCn1c(C)cc(C(=O)COC(=O)c2cc3c(s2)CCC3)c1C	active: 10 µM	
CC(=O)C1=C(Nc2ccc(C)cc2)CC(C)(O)C(C(C)=O)C1c1ccco1 (stereo not drawn)	inconclusive: 79.4 µM [inhibitor, single point]	
O=[N+]([O-])c1ccc(/C=N/Nc2nc(N3CCCCCC3)nc(N3CCCCCC3)n2)o1	inconclusive: 3.55 µM [inhibitor, partial curve]	

Structure (SMILES)	Potency	activity change, negative = inhibition
CCCCn1c(SCC(=O)/C(C#N)=C(\C)N)nc2ccccc2c1=O	inconclusive: 50.1 µM [inhibitor, partial curve]	
COc1ccc(/C=C2/C(=N)N3N=C(CC(=O)N4CCCC4)SC3=NC2=O)cc1	inactive	
O=C(N/N=C/c1ccc([N+](=O)[O-])o1)c1cc2c(ccc3ccccc32)o1	active: 3.16 µM	
CCCCOc1ccc(OC(=O)c2sc3ncn(Cc4cccc(F)c4)c(=O)c3c2C)cc1	inactive	
Cc1nn(CC(=O)NCCc2ccco2)c(=O)c2nn(-c3ccccc3)c(C)c12	active: 89.1 µM	
CCn1c(SCC(=O)Nc2cc(C)ccc2C)nc2c(c1=O)SC(C)C2 (stereo not drawn)	inconclusive: 89.1 µM [inhibitor, single point]	
O=C(CSc1ccccn1)N/N=C/c1cccc([N+](=O)[O-])c1	inconclusive: 100 µM [inhibitor, single point]	
Cn1c(=O)c2c(SCC(=O)N3CCCC3)nc(CC(C)(C)C)nc2n(C)c1=O		inconclusive: -34.6% [inhibitor]
Cc1ccc(NC(=O)C2CCCN(S(=O)(=O)c3c(C)noc3/C=C/N(C)C)C2)cc1F (stereo not drawn)	inconclusive: 0.112 µM [inhibitor, full curve, poor fit]	
CCOC(=O)c1c(N)sc(C(O)(C(F)(F)F)C(F)(F)F)c1-c1ccccc1	inconclusive: 35.5 µM [inhibitor, single point]	
COc1ccc(C(CC(=O)O)NC(=O)COc2ccccc2OC)cc1OC (stereo not drawn)	inconclusive: 3.98 µM [inhibitor, single point]	
CC1=NN(c2ccc(Cl)cc2)C(=O)C1	inactive	
Cc1ccc(C(C)NC(=O)c2ccc3c(c2)OCCO3)cc1C (stereo not drawn)	inactive	
Cn1cccc1C(=O)Nc1nc(-c2ccccn2)cs1	inconclusive: 2.82 µM [inhibitor, full curve]	
O=C(Nc1cc(Cl)cc(Cl)c1)c1ccc(F)c(S(=O)(=O)N2CCN(c3ccccc3F)CC2)c1	inconclusive: 89.1 µM [inhibitor, single point]	
CCOc1ccc(NC(=O)N2CCC(N3CCCCC3)CC2)cc1	inactive	
COc1ccc(CNC(=O)C2CC(C)=C(C)CC2C(=O)O)cc1OC (stereo not drawn)	inactive	
COc1ccccc1CNC(=O)c1nnn(CC(=O)Nc2c(C)cccc2C)c1N	inconclusive: 5.01 µM [inhibitor, full curve, poor fit]	
Cc1ccccc1OCC(=O)OCc1cc(=O)n2nc(-c3cccs3)sc2n1	inconclusive: 28.2 µM [inhibitor, full curve]	
CCc1ccc(OCc2cc(=O)n3cc(C)sc3n2)cc1	inactive	
COc1ccc(CN2C(=NC(=O)CCc3ccccc3)SC3CS(=O)(=O)CC32)cc1 (stereo not drawn)	inconclusive: 15.8 µM [inhibitor, partial curve]	
O=C1N/C(=C/c2cccn2-c2ccccc2)C(=O)N1Cc1ccccc1F	inactive	
COc1ccc(C(=O)N(Cc2cc(OC)c(OC)c(OC)c2)C2CCS(=O)(=O)C2)cc1Cl (stereo not drawn)	inconclusive: 56.2 µM [inhibitor, partial curve, poor fit]	

Structural class: the compounds so far containing bromine.
Structure (SMILES)	Potency	activity change, negative = inhibition
Cc1ccnc(N/C=C(\C#N)c2nc(-c3cccc(Br)c3)cs2)c1	active: 35.5 µM	
C/C(N)=C(/C#N)C(=O)CSc1nnc(-c2ccccc2Br)o1	inconclusive: 25.1 µM [inhibitor, single point]	
